# Patent publication US20070248590A1, “Modulators of CDC2-like kinases (CLKS) and methods of use thereof” (Sirtris Pharmaceuticals, Inc., priority 2005, published 2007)
# Chains of the proteins cited; added tags and fusions are not shown. Residues count along the entry.
# UniProt Q96EB6, residues 2-747: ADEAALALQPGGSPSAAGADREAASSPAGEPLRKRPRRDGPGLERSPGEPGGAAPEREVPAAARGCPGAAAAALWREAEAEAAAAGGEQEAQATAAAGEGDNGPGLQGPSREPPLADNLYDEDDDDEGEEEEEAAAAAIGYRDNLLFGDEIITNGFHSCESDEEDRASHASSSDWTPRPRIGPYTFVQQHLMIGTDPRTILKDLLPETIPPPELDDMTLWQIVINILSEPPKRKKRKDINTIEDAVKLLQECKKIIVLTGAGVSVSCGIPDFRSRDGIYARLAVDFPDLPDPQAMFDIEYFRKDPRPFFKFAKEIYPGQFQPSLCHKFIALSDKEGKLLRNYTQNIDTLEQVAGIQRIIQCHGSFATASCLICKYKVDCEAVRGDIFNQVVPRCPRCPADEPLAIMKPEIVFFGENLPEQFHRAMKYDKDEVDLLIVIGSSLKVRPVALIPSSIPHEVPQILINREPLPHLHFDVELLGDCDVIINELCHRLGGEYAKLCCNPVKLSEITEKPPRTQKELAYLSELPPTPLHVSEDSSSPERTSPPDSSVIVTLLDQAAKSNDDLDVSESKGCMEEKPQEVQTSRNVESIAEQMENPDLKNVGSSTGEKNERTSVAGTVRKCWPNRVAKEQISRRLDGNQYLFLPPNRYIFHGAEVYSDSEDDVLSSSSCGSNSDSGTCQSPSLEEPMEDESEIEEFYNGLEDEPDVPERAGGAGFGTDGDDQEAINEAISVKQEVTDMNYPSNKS
# UniProt O35491: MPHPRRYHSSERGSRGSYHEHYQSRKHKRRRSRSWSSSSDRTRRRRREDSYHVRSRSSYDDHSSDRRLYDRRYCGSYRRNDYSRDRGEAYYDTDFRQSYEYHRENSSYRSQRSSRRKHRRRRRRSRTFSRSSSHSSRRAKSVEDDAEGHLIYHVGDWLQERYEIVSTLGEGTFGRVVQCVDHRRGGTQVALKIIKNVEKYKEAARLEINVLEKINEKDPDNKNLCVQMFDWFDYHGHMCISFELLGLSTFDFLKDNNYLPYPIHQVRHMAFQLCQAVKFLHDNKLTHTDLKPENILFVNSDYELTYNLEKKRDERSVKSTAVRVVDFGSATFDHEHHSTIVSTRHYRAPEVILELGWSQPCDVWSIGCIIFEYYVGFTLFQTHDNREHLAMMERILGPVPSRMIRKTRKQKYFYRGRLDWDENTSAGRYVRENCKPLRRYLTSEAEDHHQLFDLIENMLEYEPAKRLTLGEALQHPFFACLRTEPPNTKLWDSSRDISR
# Results are given in words; binding and its absence hold for the method and conditions named. Binding seen in cells or lysates may run through a third protein. Some results given as binding are weak or reduced against the parent protein; the word gives no strength.
# Target: Endogenous Sirt1 of HEK 293 cells (UniProt Q96EB6)
# Assay: co-immunoprecipitation with M2 anti-Flag agarose from HEK 293 cells transfected with Flag-CLK2, western blot
substance,measurement,value
Flag-CLK2 (mouse CLK2 with an N-terminal Flag tag) (from UniProt O35491 1-499) (enzyme),binding,binds
